Test results: PubChem BioAssay AID602161 (Broad Institute, 2011)
This is one part of the list. Where no call is shown, the source marks the result inconclusive.

Molecular target: Heat shock protein HSP 90-alpha (Homo sapiens) (UniProt P07900)
Assay: HsHsp90-dependent glucocorticoid receptor activity inhibition – S. cerevisiae, beta-galactosidase luminescence, dry powder, selectivity assay for Plasmodium Hsp90 inhibitor project, dose response (AID 602161)
Conditions: S. cerevisiae HsHsp90 GR reporter, beta-gal luminescence; at 26 µM (top of the series)

Q: With `O=S(=O)(NC1CC2CCC1C2)c1ccc(Cl)cc1` (stereo unspecified) as the compound, how does the activity change, negative = inhibition read?
A: -43.5%
